Measured values as given in PubChem BioAssay AID651768 (National Center for Advancing Translational Sciences (NCATS), 2012).
About 1,700 (0.47%) of roughly 360,000 compounds were called active. This list was built around the results that the source calls inconclusive (neither active nor inactive); the mix of calls is not that of the screen. Calls come from the whole dose curve; as a rule, active = well fitted inhibition curve with a large enough effect; inconclusive = small, poorly fitted or top-dose-only effect; inactive = no such curve, though single readings can be large or run the other way. Where the call is inconclusive, the potency comes from a doubtful curve fit.

The chains behind the UniProt entries cited, without tags or fusion partners.
UniProt Q14191, whole entry, looked up: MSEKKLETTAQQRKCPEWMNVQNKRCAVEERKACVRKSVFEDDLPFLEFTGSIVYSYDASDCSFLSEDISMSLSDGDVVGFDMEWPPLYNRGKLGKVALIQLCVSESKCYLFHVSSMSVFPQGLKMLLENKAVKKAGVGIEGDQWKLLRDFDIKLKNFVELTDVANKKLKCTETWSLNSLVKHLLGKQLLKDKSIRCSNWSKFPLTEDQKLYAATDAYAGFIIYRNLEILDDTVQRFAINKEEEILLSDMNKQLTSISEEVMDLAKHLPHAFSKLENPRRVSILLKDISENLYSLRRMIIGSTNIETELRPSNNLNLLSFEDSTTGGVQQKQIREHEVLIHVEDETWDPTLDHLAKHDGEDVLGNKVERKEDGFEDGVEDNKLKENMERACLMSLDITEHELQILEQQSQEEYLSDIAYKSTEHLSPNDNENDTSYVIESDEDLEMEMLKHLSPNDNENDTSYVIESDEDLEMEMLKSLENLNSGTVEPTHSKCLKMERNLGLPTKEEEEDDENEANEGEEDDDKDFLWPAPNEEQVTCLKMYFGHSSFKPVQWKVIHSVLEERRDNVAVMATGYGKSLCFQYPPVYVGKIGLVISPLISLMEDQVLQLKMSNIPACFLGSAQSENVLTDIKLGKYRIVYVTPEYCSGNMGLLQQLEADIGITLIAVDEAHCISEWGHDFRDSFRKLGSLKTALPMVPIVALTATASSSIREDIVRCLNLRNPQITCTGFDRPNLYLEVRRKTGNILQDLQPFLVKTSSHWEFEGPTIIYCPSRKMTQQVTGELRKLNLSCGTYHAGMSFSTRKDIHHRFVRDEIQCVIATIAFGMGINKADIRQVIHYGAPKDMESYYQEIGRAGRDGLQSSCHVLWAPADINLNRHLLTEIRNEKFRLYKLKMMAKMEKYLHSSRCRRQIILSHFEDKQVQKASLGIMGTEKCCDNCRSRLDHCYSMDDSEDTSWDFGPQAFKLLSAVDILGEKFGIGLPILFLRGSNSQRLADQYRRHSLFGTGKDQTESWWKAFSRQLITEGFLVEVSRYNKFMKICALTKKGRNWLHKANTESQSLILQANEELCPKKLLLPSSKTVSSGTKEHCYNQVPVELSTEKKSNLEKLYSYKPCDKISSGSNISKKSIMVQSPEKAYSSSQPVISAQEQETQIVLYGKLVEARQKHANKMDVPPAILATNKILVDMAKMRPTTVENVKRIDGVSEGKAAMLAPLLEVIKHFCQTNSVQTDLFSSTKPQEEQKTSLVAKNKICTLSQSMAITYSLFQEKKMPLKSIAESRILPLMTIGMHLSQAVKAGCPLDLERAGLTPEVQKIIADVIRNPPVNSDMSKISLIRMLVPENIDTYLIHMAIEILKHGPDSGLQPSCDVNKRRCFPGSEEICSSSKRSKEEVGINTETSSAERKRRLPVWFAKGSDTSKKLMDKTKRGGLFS

Target: Bifunctional 3'-5' exonuclease/ATP-dependent helicase WRN (Homo sapiens) (UniProt Q14191)
Experiment: qHTS for Inhibitors of WRN Helicase; note: nearly all actives have a fitted effect of over 55% in size
Settings: WRN helicase unwinding, fluorescent forked duplex, kinetic; activity change, negative = inhibition: at 114 µM (top of the series) unless noted
In short: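 Enzyme (20 nM final) and test compound sit together 15 min at room temperature before substrate addition. Substrate is a single-forked duplex oligonucleotide (100 nM) labelled with fluorophore and quencher, with 2 mM ATP; helicase unwinding raises red fluorescence, read kinetically.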
% is set by controls: 0 for no effect and ±100 for the full control effect; potency is the fitted concentration of half-maximal effect.

Row | SMILES | Potency | activity change, negative = inhibition
1 | O=C(N/N=C/c1ccc(-c2ccccc2C(=O)O)o1)c1cccs1 | inconclusive: 15 µM [inhibitor, partial curve] | 
2 | Cc1nnc(SCC2=C(C(=O)O)N3C(=O)C(NC(=O)Cn4nc(C(F)F)c(Cl)c4C)C3SC2)s1 (stereo not given) | inconclusive: 56.2 µM [inhibitor, partial curve, poor fit] | 
3 | Cc1nc(NC(C)c2ccccc2)sc1C(=O)Nc1ccccc1 (stereo not given) | inactive | 
4 | CC(=Cc1ccccc1)C=C1SC(=S)N(CCCC(=O)Nc2ccc(C(=O)O)cc2)C1=O | inactive | 
5 | CC(C)Cn1c(SCC(=O)Nc2cc(Cl)c(Cl)cc2Cl)nc(O)cc1=O | inactive | 
6 | O=C(O)c1ccc(/C=N\Nc2ccccn2)cc1 | inconclusive: 39.8 µM [inhibitor, single point] | 
7 | COC1=C(Br)C(=O)c2ncccc2C1=O | active: 10 µM | 
8 | CC(C)NC(=S)N1CCCN(c2ncccc2[N+](=O)[O-])CC1 | inactive | 
9 | Cc1ccc(C(=O)Sc2cccccc2=O)cc1 | inactive | 
10 | CCOC(=O)/C=C/C(=O)Nc1ccc(S(=O)(=O)N(C)c2ccccc2)cc1 | inconclusive: 39.8 µM [inhibitor, single point] | 
11 | O=C(c1ccc(=O)oc1)N1CCCc2ccccc21 | inconclusive: 23.8 µM [inhibitor, partial curve] | 
12 | O=C1C=CC(=O)N1c1ccc2ccccc2c1 | active: 50.1 µM | 
13 | CCCc1cc(=O)oc2c(C)c(OCC(=O)Nc3cccnc3)ccc12 | inactive | 
14 | O=C(Nc1nc(-c2ccco2)c(-c2ccco2)s1)c1ccc(F)cc1F | inconclusive: 56.2 µM [inhibitor, partial curve] | 
15 | C/C(=N\NC(=O)c1cc(Br)ccc1O)c1cccc(NC(=O)c2ccccc2F)c1 | inconclusive: 31.6 µM [inhibitor, full curve, poor fit] | 
16 | O=[N+]([O-])c1ccc(N/N=C/c2c[nH]c3ccccc23)cc1 | inconclusive: 35.5 µM [inhibitor, full curve, poor fit] | 
17 | CCCCNC(=O)C1C2C=CC(C2)C1C(=O)O (stereo not given) | inconclusive: 22.4 µM [inhibitor, single point] | 
18 | C=CCn1cc(C(=O)NCc2ccc(Cl)cc2)c(=O)c2cc(S(=O)(=O)N(CC)CC)ccc21 | inconclusive: 10 µM [inhibitor, partial curve] | 
19 | COc1ccc(C(=O)n2nc(-c3ccco3)nc2N)cc1 | inactive | 
20 | O=C(O)COc1ccccc1/C=N/NC(=O)COc1ccc(-c2ccccc2)cc1 | inconclusive: 89.1 µM [inhibitor, single point] | 
21 | Cc1ccc(Br)c(NS(=O)(=O)c2cccc(C(=O)N3CCNC(=O)C3)c2)c1 | inconclusive: 14.1 µM [inhibitor, single point] | 
22 | CSc1ccc(S(=O)(=O)NCc2ccc(C)cc2)cc1 | inconclusive: 17.8 µM [inhibitor, partial curve] | 
23 | O=C(N/N=C/c1cccc(OC2CSC2)c1)c1ccccc1O |  | inconclusive: -44% [inhibitor] [at 57.1 µM]

Row | SMILES | Potency | activity change, negative = inhibition
24 | CCOC(=O)c1ccc(-n2c(CCC(=O)O)ccc2-c2cccs2)cc1 | inconclusive: 50.1 µM [inhibitor, partial curve] | 
25 | O=C(COC(=O)c1ccccc1Oc1ccccc1)NCc1ccco1 | inconclusive: 44.7 µM [inhibitor, partial curve] | 
26 | O=C(O)c1cc2c(s1)-c1ccccc1OC2 | inactive | 
27 | O=C(O)/C=C\c1cc2c(cc1[N+](=O)[O-])OCO2 | inactive | 
28 | CCOCCCNC(=O)c1ccc2c(c1)ncn2-c1ccc(C)cc1C | inactive | 
29 | COc1cc(/C=C2/C(=O)NN(c3ccc(F)cc3)C2=O)cc([N+](=O)[O-])c1O | inconclusive: 50.1 µM [inhibitor, partial curve] | 
30 | CS/C(=N\S(=O)(=O)c1cccs1)NC(=O)CSc1nc2ccccc2s1 | inconclusive: 50.1 µM [inhibitor, partial curve] | 
31 | CCc1nnc(NS(=O)(=O)c2ccc(N=Cc3c(C)[nH]n(-c4cccc(Cl)c4)c3=O)cc2)s1 | inconclusive: 15.8 µM [inhibitor, full curve, poor fit] | 
32 | Cc1cc(N/N=C/c2ccc(O)cc2O)nc(-n2nc(C)cc2C)n1 | inconclusive: 50.1 µM [inhibitor, partial curve] | 
33 | CC(=C\c1ccccc1)/C=C1/SC(=S)N(CCCC(=O)O)C1=O | active: 50.1 µM | 
34 | N#CC1(C#N)C(c2ccccc2)OC23CCCCC2C1(C#N)C(=N)O3 (stereo not given) | inconclusive: 20 µM [inhibitor, single point] | 
35 | CC(C)(C)c1ccc(OCC(=O)Nc2ccc(C(=O)Nc3ccccc3C(=O)O)cc2)cc1 | inconclusive: 20 µM [inhibitor, full curve, poor fit] | 
36 | CCOC(=O)c1c(-c2ccc(F)cc2)csc1NC(=O)CN1C(=O)NC2(CCCCC2C)C1=O (stereo not given) | inconclusive: 100 µM [inhibitor, partial curve, poor fit] | 
37 | O=C(CC(Nc1ccc(F)cc1)C(=O)O)c1ccccc1 (stereo not given) | inconclusive: 44.7 µM [inhibitor, full curve, poor fit] | 
38 | Cc1c(C(=O)O)sc2nc(-c3cccs3)cc(C(F)(F)F)c12 | inconclusive: 44.7 µM [inhibitor, partial curve] | 
39 | CCOC(=O)Cc1csc(SCC(=O)N(CC(C)C)c2c(N)n(Cc3ccccc3)c(=O)[nH]c2=O)n1 | inactive | 
40 | COCCN1C(=O)/C(=C/c2ccc(N3CCCC3)cc2)SC1=S | inactive | 
41 | Cc1nn(C)c(C)c1N1C(=O)c2cccc3c(N)ccc(c23)C1=O | inconclusive: 100 µM [inhibitor, single point] | 
42 | O=C(/C=C/c1ccc([N+](=O)[O-])cc1)Nc1cccc(C(=O)Nc2ccccc2C(=O)O)c1 | active: 31.6 µM | 
43 | COc1ccc(Nc2nc(N)c([N+](=O)[O-])c(NC3CCCCC3)n2)cc1 | inconclusive: 56.2 µM [inhibitor, partial curve] | 
44 | Cc1ccc(/C=C2\SC(=S)N(CCCC(=O)Nc3ccccc3C(=O)O)C2=O)cc1 | inactive | 
45 | O=c1[nH]n(-c2ccc([N+](=O)[O-])cc2)c(=O)c2ccccc12 | inconclusive: 50.1 µM [inhibitor, partial curve] | 

For reference, part of the list above:
Row | SMILES | Potency | activity change, negative = inhibition
32 | Cc1cc(N/N=C/c2ccc(O)cc2O)nc(-n2nc(C)cc2C)n1 | inconclusive: 50.1 µM [inhibitor, partial curve] | 
33 | CC(=C\c1ccccc1)/C=C1/SC(=S)N(CCCC(=O)O)C1=O | active: 50.1 µM | 
34 | N#CC1(C#N)C(c2ccccc2)OC23CCCCC2C1(C#N)C(=N)O3 (stereo not given) | inconclusive: 20 µM [inhibitor, single point] | 
